From US6403774B1, “Azoamidine compound” (Wako Pure Chemical Industries, Ltd., priority 2000, dated 2002)

Assay: Polymerization of acrylamide in water at 70° C. with the compound as initiator; polymerization rate at each time

Row | Compound | Rate of Polymerization (%) (Polymerization Time 0.5 H) | Rate of Polymerization (%) (Polymerization Time 1 H) | Rate of Polymerization (%) (Polymerization Time 1.5 H) | Rate of Polymerization (%) (Polymerization Time 2 H) | Rate of Polymerization (%) (Polymerization Time 3 H) | Rate of Polymerization (%) (Polymerization Time 4 H) | Rate of Polymerization (%) (Polymerization Time 5 H) | Rate of Polymerization (%) (Polymerization Time 6 H)
1 | 2,2′-azobis [Example 2, 2,2′-azobis [2-methyl-1-(N-pyrrolidinyl)iminopropane]] | 25.7 | 59.0 | 67.0 | 72.7 | 78.3 | 85.8 | 89.3 | 87.8
2 | CC(C)(N=NC(C)(C)C(=N)N)C(=N)N.Cl [Comparative Compound 1, 2,2′-azobis(2-methylpropionamidine) hydrochloride] | 59.9 | 70.7 | 76.5 | 76.8 | 76.3 | 75.8 | 76.5 | 76.2
3 | CC(C)(N=NC(C)(C)C(=O)NCCO)C(=O)NCCO [Comparative Compound 2, 2,2′-azobis[N-(2-hydroxyethyl)-2-methylpropionamide]] | 11.5 | 18.5 | 24.5 | 30.5 | 41.4 | 54.0 | 63.5 | 71.0
